Data as given in PubChem BioAssay AID743454 (Peter MacCallum Cancer Centre, 2014).

Purpose: 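Knock-downs lowering viability or raising caspase 3/7 activity in vorinostat-treated resistant cells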 (primary screen)
Cells: human HCT116-VR colon cancer cells, selected for vorinostat resistance
Knock-down reagent: siRNA pool against human genes, 40 nM siRNA pool
Timing: vorinostat for 24 h, read-out about 72 h after transfection
Conditions: vorinostat at 2.5 µM final
Detection: 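Cell viability by CellTiter-Fluor and caspase 3/7 activity by luminescence, each scaled to mock wells per plate, duplicates averaged, then robust z-scored over all plates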
Reading the numbers: viability robust z-score: higher = more viable cells than screen typical; caspase robust z-score: higher = more caspase 3/7 activity than screen typical
Rule for the call: 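Hits are knock-downs in viability class RV1/RV2 or caspase class CA1/CA2, excluding ones that killed cells in the no-drug cell-count arm; hits then retested with single siRNAs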
The whole screen tested about 18,000 reagents; shown is an unselected part. 450 of them (2.5%) were called active. 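Single biological run; no consistent viability z cut-off exists, so the class columns, not z-scores, define the calls.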 Unmarked entries are inactive. Reagent sequences are not shown.

no.	gene	PubChem SID	viability hit class	caspase hit class	viability robust z-score	caspase robust z-score
1	PPP1R13B (protein phosphatase 1 regulatory subunit 13B)	SID135621947	no change	no change	1.09	-0.55
2	OR4N2 (olfactory receptor family 4 subfamily N member 2)	SID135624902	no change	no change	-0.5	-0.92
3	ITPRIP (inositol 1,4,5-trisphosphate receptor interacting protein)	SID135622887	no change	no change	0.82	0.46
4	ASB15 (ankyrin repeat and SOCS box containing 15)	SID135624960	no change	no change	-0.57	-0.52
5	RTL8B (retrotransposon Gag like 8B)	SID135625344	no change	no change	-1.1	-1.04
6	KIF25 (kinesin family member 25)	SID152152210	no change	no change	-0.26	1.58
7	MAGEA5P (MAGE family member A5, pseudogene)	SID152154771	no change	no change	-1.4	-0.5
8	WHR1 (winged helix repair factor 1)	SID152154332	no change	no change	0.05	-0.06
9	HEBP1 (heme binding protein 1)	SID152147086	no change	no change	0.48	-1.06
10	GDI2 (GDP dissociation inhibitor 2)	SID134315094	no change	no change	0.26	-0.22
11	TVP23A (trans-golgi network vesicle protein 23 homolog A)	SID135625680	no change	no change	0.1	-0.52
12	FNBP1 (formin binding protein 1)	SID152150614	no change	no change	1.36	-0.45
13	PLCD4 (phospholipase C delta 4)	SID134310724	no change	no change	0.66	1.32
14	USP39 (ubiquitin specific peptidase 39)	SID152152055	no change	no change	-1.9	1.43
15	PIGR (polymeric immunoglobulin receptor)	SID134321642	no change	no change	-1.84	4.01

Next part; the last 4 above are carried over.
no.	gene	PubChem SID	viability hit class	caspase hit class	viability robust z-score	caspase robust z-score
12	FNBP1 (formin binding protein 1)	SID152150614	no change	no change	1.36	-0.45
13	PLCD4 (phospholipase C delta 4)	SID134310724	no change	no change	0.66	1.32
14	USP39 (ubiquitin specific peptidase 39)	SID152152055	no change	no change	-1.9	1.43
15	PIGR (polymeric immunoglobulin receptor)	SID134321642	no change	no change	-1.84	4.01
16	PTH2 (parathyroid hormone 2)	SID135623389	no change	no change	-0.33	1.45
17	TLCD3A (TLC domain containing 3A)	SID152152943	no change	no change	0.14	1.59
18	IRAG1 (inositol 1,4,5-triphosphate receptor associated 1)	SID135624189	no change	no change	-0.22	0.57
19	CPA3 (carboxypeptidase A3)	SID135621078	no change	no change	0.76	-0.86
20	SORCS1 (sortilin related VPS10 domain containing receptor 1)	SID152152522	no change	no change	0.18	-1.22
21	DDX20 (DEAD-box helicase 20)	SID134317696	no change	no change	-0.4	-0.14
22	ITSN1 (intersectin 1)	SID135621555	no change	no change	-1.66	-0.29
23	ZNF518B (zinc finger protein 518B)	SID135624443	no change	no change	0.2	0.5
24	C8orf33 (chromosome 8 open reading frame 33)	SID152147692	no change	no change	-1.64	3.58
25	DAPK2 (death associated protein kinase 2)	SID152156399	no change	no change	0.65	-0.46
26	UIMC1 (ubiquitin interaction motif containing 1)	SID135621289	no change	no change	0.82	-0.11
27	TNNC1 (troponin C1, slow skeletal and cardiac type)	SID134316918	no change	no change	-1.94	4.71
28	ZNG1E (Zn regulated GTPase metalloprotein activator 1E)	SID135624527	no change	no change	0.91	-0.25
29	CRIP2 (cysteine rich protein 2)	SID134310775	no change	no change	1.38	0.67
30	PTGDR2 (prostaglandin D2 receptor 2)	SID152155799	no change	no change	0.02	0.38
31	RREB1 (ras responsive element binding protein 1)	SID152155159	no change	no change	0.49	-0.48
32	SLC66A2	SID134322248	no change	no change	1.34	-0.84
33	NDNF (neuron derived neurotrophic factor)	SID135623144	no change	no change	-0.09	-0.52
34	RIMS3 (regulating synaptic membrane exocytosis 3)	SID134324521	no change	no change	-1.34	0.26
35	SPIN1 (spindlin 1)	SID152155202	no change	no change	0.6	-0.24
36	BLOC1S2 (biogenesis of lysosomal organelles complex 1 subunit 2)	SID134322207	no change	no change	-0.5	-1.15
37	TCF25 (TCF25 ribosome quality control complex subunit)	SID134318343	no change	no change	-0.68	-0.85
38	PPM1N (protein phosphatase, Mg2+/Mn2+ dependent 1N (putative))	SID135621692	no change	no change	-1	0.41
39	QRICH2 (glutamine rich 2)	SID134318888	no change	no change	0.24	-0.74
